In patent US20140248361A1, “HERBAL EXTRACT COMPOSITION AND A PROCESS THEREOF” (PRASAN SOLUTIONS (INDIA) PVT LTD, priority 2012, published 2014):
Some results were stated once for a whole list of compounds, not compound by compound.

Experiment: Totox value of sunflower oil on storage
Conditions: 50° C.

SMILES: CC(C)(C)c1cc(O)ccc1O [Sample A, tertiary butyl hydroquinone]
- days by which totox value crosses the threshold limit of 30: ≤ 37 days
